# Source: the supplement of paper PMC4635364
# Structures can show the parent of a compound that is named as a salt. The list shows a part of the results. Repeats in this data set agree poorly, so a single value says little.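 ReNCell VM, a human fetal ventral-midbrain neural progenitor line, was differentiated without mitogens. Blinded raters scored images stained for doublecortin (early neurons) or tyrosine hydroxylase (dopaminergic neurons) against untreated wells (0 = no change). Scores were averaged across repeats and both raters, and compounds averaging 2 or more were selected as hits for retesting.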
# System: ReNCell VM
# Test: dopaminergic neuron differentiation score (TH+ cell fraction vs untreated, manual image score) (score (0 to 3)); higher = more TH+ dopaminergic neuron differentiation
# Conditions: library: Prestwick; 2 uM; 4 weeks; BDNF 10 ng/ml + GDNF 10 ng/ml
row,Structure (SMILES),dopaminergic neuron differentiation score
1,O=C(O)Cc1ccccc1Nc1c(Cl)cccc1Cl [Diclofenac sodium],inactive: 0
2,Cc1ncc(C[n+]2csc(CCO)c2C)c(N)n1 [Thiamine hydrochloride],inactive: 0
3,CN(C)CCC=C1c2ccccc2C=Cc2ccccc21 [Cyclobenzaprine hydrochloride],inactive: 0
4,CC(C)OC(=O)C(C)(C)Oc1ccc(C(=O)c2ccc(Cl)cc2)cc1 [Fenofibrate],inactive: 0
5,Cc1ccc(S(=O)(=O)NC(=O)NN2CCCCCC2)cc1 [Tolazamide],inactive: 0
6,CCCCc1oc2ccccc2c1C(=O)c1cc(I)c(OCCN(CC)CC)c(I)c1 [Amiodarone hydrochloride],inactive: 0
7,CCCCC[C@H](O)/C=C/[C@H]1[C@H](O)CC(=O)[C@@H]1CCCCCCC(=O)O [Alprostadil],inactive: 0
8,CC[N+](C)(C)c1cccc(O)c1 [Edrophonium chloride],inactive: 0
9,Nc1nc2c(ncn2COC(CO)CO)c(=O)[nH]1 [Ganciclovir],inactive: 0
10,Cc1cnc(C(=O)NCCc2ccc(S(=O)(=O)NC(=O)NC3CCCCC3)cc2)cn1 [Glipizide],inactive: 0
11,CC1COc2c(N3CCN(C)CC3)c(F)cc3c(=O)c(C(=O)O)cn1c23 (centres undefined) [Ofloxacin],inactive: 0
12,Cc1cc(C(C)(C)C)cc(C)c1CC1=NCCN1 [Xylometazoline hydrochloride],inactive: 0
13,C#C[C@]1(O)CC[C@H]2[C@@H]3CCC4=Cc5oncc5C[C@]4(C)[C@H]3CC[C@@]21C [Danazol],inactive: 0
14,CC(C)Cn1cnc2c(N)nc3ccccc3c21 [Imiquimod],inactive: 0
15,CC(=O)CCCCn1c(=O)c2c(ncn2C)n(C)c1=O [Pentoxifylline],inactive: 0
16,Cn1c(=O)c2[nH]cnc2n(C)c1=O [Aminophylline],inactive: 0
17,NS(=O)(=O)Cc1noc2ccccc12 [Zonisamide],inactive: 0
18,CC(=O)O[C@]1(C(C)=O)CC[C@H]2[C@@H]3C=C(Cl)C4=CC(=O)[C@@H]5C[C@@H]5[C@]4(C)[C@H]3CC[C@@]21C [Cyproterone acetate],inactive: 0
19,CCN(CC)CC(=O)Nc1c(C)cccc1C [Lidocaine hydrochloride],inactive: 0
20,CCOC(=O)C(C)(C)Oc1ccc(Cl)cc1 [Clofibrate],inactive: 0
21,CN(C)CCCO[C@@H]1[C@H]2OC(C)(C)O[C@H]2O[C@@H]1[C@H](O)CO [Amiprilose hydrochloride],inactive: 0
22,N=C(N)N1CCc2ccccc2C1 [Debrisoquin sulfate],inactive: 0
23,CC[C@H](C)C(=O)O[C@H]1C[C@@H](C)C=C2C=C[C@H](C)[C@H](CC[C@@H]3C[C@@H](O)CC(=O)O3)[C@H]21 [Lovastatin],inactive: 1
24,CCCCC1C(=O)N(c2ccccc2)N(c2ccccc2)C1=O [Phenylbutazone],inactive: 0
25,C[C@H](CS)C(=O)N1CCC[C@H]1C(=O)O [Captopril],inactive: 0
26,CN(Cc1cnc2nc(N)nc(N)c2n1)c1ccc(C(=O)N[C@@H](CCC(=O)O)C(=O)O)cc1 [Methotrexate],inactive: 0

# Same assay, conditions: library: Tocriscreen; 2 uM; 4 weeks; BDNF 10 ng/ml + GDNF 10 ng/ml
row,Structure (SMILES),dopaminergic neuron differentiation score
1,O=C(O)c1cc(=O)c2ccccc2[nH]1 [Kynurenic acid],active: 3
2,Nc1nc2ccc(Cl)cc2c2nc(-c3ccco3)nn12,inactive: 0
3,CCCCC[C@H](O)/C=C/[C@H]1[C@H](O)CC(=O)[C@@H]1CCCCCCC(=O)O [Alprostadil],inactive: 0
4,Cc1cc(C)c(/C=C2\C(=O)Nc3ccccc32)[nH]1,inactive: 1
5,Cn1cnc2c(NCc3ccccc3)nc(NCCO)nc21 [Olomoucine],inactive: 0
6,NS(=O)(=O)Cc1noc2ccccc12 [Zonisamide],inactive: 0
7,Nc1ncnc2c1ncn2C1CCCO1 (centres undefined),inactive: 0
8,C1CCC(N=C(NC23CC4CC(CC(C4)C2)C3)N2CCOCC2)CC1,inactive: 0
9,COc1cccc(-c2cc(=O)c3ccccc3o2)c1N,inactive: 0
10,CCCCCCC(=O)OC1CC(C)(C)NC(C)(C)C1 [TMPH hydrochloride],inactive: 0
11,NC1CCN(c2cccc(Cl)n2)CC1,inactive: 0
12,CCCc1c(OCCCOc2ccc(OCC(=O)O)cc2)ccc(C(C)=O)c1O,inactive: 0
13,COc1ccc(-c2ccc(=N)n(CCCC(=O)O)n2)cc1,inactive: 0
14,COCC(=O)O[C@]1(CCN(C)CCCc2nc3ccccc3[nH]2)CCc2cc(F)ccc2[C@@H]1C(C)C [Mibefradil dihydrochloride],inactive: 0
15,C=C[C@@]1(C)CC(=O)[C@]2(O)[C@@]3(C)[C@@H](O)CCC(C)(C)[C@@H]3[C@H](O)[C@H](OC(C)=O)[C@@]2(C)O1 [Forskolin],inactive: 0
16,CC[C@H](C)C(=O)O[C@H]1C[C@@H](C)C=C2C=C[C@H](C)[C@H](CC[C@@H]3C[C@@H](O)CC(=O)O3)[C@H]21 [Lovastatin],inactive: 0
17,O=C(OCCN1CCCCC1)c1c[nH]c2ccccc12,inactive: 0
18,CN(Cc1cnc2nc(N)nc(N)c2n1)c1ccc(C(=O)N[C@@H](CCC(=O)O)C(=O)O)cc1 [Methotrexate],inactive: 0
